From the supplement of paper PMC10849652
Some of the results follow.

Sequences of proteins named here, by UniProt entry; tags and fusion partners are left off. A change or cut given only in a name is not applied to a line headed by its entry.
UniProt P02008: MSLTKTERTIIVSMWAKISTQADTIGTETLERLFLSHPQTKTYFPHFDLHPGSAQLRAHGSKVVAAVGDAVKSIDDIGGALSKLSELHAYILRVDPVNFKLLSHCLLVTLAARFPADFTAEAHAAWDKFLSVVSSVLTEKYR
UniProt P13807: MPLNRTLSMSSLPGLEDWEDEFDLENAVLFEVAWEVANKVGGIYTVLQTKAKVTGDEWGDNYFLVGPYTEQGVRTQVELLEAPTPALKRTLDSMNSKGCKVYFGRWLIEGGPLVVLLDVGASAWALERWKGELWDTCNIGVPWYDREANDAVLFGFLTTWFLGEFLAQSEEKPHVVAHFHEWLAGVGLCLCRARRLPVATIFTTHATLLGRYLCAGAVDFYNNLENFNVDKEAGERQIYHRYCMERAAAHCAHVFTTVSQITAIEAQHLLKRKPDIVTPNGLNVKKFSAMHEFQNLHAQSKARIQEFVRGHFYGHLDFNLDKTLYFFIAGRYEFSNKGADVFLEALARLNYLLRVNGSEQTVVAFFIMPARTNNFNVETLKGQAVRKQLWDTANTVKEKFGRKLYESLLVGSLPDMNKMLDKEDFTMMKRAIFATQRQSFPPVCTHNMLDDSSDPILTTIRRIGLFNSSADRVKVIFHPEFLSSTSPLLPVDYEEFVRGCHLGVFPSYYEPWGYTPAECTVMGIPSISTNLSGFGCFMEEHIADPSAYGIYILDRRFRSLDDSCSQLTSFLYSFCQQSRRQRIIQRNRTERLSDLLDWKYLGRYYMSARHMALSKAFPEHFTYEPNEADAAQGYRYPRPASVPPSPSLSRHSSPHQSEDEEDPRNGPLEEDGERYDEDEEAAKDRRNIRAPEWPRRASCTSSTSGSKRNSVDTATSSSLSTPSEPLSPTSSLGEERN
UniProt Q8NEC7: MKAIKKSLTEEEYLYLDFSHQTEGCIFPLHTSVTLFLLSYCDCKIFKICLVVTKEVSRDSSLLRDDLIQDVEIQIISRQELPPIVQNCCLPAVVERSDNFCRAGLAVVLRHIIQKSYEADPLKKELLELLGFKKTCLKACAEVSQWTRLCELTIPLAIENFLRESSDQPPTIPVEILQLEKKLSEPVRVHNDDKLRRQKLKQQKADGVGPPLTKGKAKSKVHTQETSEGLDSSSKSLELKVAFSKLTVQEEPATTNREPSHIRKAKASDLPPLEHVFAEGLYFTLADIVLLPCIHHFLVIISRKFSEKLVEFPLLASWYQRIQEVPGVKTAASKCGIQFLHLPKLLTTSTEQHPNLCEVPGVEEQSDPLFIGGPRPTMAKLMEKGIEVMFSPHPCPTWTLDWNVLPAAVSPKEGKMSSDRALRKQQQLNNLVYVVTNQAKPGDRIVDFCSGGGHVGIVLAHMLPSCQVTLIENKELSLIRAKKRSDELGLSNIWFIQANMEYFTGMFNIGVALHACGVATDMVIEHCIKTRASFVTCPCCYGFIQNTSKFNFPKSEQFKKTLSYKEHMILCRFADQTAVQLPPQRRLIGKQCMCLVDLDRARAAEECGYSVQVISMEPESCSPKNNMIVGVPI
UniProt Q9P2D3: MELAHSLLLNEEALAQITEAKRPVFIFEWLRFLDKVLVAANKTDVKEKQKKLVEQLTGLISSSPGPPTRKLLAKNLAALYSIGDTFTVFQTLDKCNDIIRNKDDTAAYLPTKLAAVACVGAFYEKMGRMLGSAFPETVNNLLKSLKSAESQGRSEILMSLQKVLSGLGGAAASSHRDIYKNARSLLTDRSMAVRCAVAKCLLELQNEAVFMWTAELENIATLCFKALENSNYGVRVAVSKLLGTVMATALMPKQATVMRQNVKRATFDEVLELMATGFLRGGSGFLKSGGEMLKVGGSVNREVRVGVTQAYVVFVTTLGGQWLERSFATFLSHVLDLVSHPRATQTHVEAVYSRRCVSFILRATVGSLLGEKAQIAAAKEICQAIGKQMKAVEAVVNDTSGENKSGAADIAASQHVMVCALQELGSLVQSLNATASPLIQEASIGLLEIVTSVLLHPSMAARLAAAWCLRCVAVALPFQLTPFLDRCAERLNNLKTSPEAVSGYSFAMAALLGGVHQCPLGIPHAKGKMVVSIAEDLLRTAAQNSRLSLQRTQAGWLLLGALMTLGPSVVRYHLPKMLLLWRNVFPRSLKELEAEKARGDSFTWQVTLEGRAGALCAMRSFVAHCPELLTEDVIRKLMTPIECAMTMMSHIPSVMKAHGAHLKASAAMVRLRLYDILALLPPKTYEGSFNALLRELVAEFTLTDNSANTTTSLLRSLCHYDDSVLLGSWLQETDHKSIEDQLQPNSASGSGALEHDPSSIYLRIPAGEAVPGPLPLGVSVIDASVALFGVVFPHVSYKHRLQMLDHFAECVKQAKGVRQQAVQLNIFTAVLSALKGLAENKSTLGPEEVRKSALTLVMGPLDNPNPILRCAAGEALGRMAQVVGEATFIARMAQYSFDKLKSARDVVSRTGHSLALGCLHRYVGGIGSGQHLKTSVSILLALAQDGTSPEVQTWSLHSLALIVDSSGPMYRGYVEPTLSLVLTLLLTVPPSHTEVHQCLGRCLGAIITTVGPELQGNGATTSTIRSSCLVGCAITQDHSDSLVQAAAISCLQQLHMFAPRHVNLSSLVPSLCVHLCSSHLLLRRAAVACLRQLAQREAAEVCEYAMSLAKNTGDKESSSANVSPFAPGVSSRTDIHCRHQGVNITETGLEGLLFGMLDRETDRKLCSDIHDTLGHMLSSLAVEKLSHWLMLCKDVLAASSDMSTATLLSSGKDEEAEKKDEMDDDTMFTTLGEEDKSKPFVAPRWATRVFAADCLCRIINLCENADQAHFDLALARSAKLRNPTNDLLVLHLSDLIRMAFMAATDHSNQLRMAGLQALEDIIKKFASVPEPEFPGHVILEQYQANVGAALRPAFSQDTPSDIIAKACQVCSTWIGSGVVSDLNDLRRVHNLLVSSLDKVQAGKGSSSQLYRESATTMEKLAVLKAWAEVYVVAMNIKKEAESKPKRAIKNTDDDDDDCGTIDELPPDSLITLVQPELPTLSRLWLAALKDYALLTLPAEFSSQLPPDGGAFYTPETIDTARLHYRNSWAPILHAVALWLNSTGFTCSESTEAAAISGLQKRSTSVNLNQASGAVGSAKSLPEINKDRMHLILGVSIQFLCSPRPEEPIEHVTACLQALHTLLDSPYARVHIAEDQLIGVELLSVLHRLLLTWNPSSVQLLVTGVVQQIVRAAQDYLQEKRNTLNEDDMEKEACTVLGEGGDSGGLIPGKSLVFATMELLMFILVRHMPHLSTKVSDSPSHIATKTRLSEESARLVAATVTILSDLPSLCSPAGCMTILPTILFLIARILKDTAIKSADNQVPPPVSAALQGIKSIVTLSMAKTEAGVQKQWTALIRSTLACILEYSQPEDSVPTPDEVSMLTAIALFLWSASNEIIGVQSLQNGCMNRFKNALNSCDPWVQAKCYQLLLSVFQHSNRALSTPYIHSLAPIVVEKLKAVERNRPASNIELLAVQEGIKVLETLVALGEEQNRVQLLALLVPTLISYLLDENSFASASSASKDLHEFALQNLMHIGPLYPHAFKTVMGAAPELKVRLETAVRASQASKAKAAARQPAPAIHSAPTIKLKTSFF
UniProt P55084: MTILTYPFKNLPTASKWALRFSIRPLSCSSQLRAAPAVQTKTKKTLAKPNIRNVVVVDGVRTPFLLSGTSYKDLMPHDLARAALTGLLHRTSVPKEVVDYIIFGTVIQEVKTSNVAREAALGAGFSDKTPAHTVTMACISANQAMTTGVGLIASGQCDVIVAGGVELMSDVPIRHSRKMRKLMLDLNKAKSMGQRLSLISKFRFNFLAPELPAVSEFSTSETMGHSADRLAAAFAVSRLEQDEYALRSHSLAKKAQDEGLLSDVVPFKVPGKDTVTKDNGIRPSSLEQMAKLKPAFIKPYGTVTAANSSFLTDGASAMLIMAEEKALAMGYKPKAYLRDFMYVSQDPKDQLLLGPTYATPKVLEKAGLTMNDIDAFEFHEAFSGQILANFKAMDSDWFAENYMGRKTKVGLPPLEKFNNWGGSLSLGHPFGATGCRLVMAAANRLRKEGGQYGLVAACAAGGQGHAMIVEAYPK
UniProt P56524: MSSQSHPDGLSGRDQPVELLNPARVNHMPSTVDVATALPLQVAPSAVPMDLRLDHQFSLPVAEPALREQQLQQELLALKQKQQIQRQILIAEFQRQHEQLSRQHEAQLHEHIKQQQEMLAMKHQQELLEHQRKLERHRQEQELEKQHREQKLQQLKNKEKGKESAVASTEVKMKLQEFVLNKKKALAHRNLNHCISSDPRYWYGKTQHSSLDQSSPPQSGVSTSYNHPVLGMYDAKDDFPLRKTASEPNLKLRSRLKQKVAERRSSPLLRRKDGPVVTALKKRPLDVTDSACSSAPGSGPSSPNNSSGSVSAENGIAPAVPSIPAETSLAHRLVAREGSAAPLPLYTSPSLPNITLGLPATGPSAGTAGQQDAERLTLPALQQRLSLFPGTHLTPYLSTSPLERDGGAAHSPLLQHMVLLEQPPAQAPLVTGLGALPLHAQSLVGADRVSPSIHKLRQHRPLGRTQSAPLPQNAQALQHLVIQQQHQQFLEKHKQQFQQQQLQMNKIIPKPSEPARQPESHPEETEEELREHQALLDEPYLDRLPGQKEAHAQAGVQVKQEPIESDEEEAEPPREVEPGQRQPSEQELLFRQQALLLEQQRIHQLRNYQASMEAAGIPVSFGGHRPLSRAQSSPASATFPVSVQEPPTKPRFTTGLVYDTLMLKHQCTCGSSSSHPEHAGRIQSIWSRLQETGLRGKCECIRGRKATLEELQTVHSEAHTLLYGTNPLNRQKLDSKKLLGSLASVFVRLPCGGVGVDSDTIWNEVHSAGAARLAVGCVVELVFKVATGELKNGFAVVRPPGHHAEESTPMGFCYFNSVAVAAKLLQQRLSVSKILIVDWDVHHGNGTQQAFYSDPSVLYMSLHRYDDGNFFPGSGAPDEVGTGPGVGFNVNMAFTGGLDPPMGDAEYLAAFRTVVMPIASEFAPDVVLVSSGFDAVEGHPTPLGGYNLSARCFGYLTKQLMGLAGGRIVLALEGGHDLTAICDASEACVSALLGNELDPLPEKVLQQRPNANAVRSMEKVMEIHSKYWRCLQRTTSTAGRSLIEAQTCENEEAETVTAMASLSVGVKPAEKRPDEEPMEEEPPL
UniProt P09105: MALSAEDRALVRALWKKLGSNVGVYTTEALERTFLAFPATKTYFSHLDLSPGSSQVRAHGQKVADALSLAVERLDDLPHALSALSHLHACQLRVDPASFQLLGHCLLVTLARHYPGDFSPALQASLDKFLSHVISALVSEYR
UniProt Q9Y450, whole entry, looked up: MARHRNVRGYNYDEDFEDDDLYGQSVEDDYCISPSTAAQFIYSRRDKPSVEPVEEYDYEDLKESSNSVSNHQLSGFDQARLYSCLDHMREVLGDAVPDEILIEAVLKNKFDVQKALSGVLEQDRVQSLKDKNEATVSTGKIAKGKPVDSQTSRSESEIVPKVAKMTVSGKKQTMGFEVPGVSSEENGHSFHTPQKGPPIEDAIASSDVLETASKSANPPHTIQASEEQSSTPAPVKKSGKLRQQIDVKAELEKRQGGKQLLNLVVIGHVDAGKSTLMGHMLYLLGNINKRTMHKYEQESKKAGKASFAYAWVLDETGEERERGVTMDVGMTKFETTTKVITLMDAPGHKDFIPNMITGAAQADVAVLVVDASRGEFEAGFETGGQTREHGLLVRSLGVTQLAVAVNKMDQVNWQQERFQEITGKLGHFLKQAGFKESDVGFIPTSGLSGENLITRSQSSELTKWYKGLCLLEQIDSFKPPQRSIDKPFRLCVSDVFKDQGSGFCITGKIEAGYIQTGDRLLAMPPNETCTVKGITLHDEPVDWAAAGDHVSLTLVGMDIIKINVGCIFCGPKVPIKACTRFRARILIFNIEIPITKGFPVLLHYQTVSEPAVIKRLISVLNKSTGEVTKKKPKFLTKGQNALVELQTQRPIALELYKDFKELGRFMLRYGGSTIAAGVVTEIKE
UniProt Q7Z4H3: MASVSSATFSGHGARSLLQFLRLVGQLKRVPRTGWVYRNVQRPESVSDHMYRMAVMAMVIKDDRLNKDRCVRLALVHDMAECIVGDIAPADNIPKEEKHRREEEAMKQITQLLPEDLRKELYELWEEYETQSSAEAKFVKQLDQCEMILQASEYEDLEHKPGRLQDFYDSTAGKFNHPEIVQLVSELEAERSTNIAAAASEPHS
UniProt Q9BSH5: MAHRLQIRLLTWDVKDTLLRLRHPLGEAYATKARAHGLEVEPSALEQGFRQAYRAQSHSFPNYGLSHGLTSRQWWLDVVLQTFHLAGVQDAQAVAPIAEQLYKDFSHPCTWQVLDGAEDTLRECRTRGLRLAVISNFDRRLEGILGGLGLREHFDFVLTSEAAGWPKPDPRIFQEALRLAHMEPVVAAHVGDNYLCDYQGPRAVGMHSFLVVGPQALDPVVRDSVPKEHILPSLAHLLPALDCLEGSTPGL

Legend:
Test in all cases: log2 fold change, soluble protein after heating vs DMSO (PISA); higher = thermal stabilisation; K562 lysate, 10 uM; active = over 0.2 and 3.5 SD of the protein, either way, in both replicates (recomputed)
[1] = compound: C#Cc1cccc(Nc2ncnc3cc(OCCOC)c(OCCOC)cc23)c1 [erlotinib]
How it was run: (§1)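 K562 pellets were dounce-homogenised in PBS pH 7.4 with 1 mM MgCl2, and the crude extract at 1 mg/mL protein was treated with 10 μM compound for 30 min. Aliquots were heated for 3 min across 48°C-58°C, pooled, and brought to 0.5% NP-40 at 4°C; soluble protein was the supernatant after 21,000xg for 90 min. Soluble protein was quantified by TMTpro 16plex LC-MS/MS with channel sums equalised, and reported as log2 fold change in thermal stability against DMSO controls, with values from duplicates.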

[2] = compound: C/C(=N\NC(=O)C1=CC(=CC=C1)S(=O)(=O)N2CCOCC2)/C3=C(C=CC(=C3)Cl)O
How it was run: as §1

[3] = compound: C1=CC(=CC=C1C2=NC3=C(N2)C=C(C=C3)C(=O)N)OC4=CC=C(C=C4)Cl
How it was run: as §1

[4] = compound: C1=CC2=C(C=CC(=C2)/C=C\3/C(=O)NC(=NCC4=CC=CS4)S3)N=C1
How it was run: as §1

[5] = compound: C1=CC2=NC=CN=C2C=C1/C=C/3\C(=O)NC(=O)S3
How it was run: as §1

[6] = compound: C1=CC=C(C=C1)C2=NC(=C(N2)C3=CC=NC=C3)C4=CC(=C(C=C4)Cl)O
How it was run: as §1

[7] = compound: C1=CC=C2C(=C1)C3=NNC4=CC=CC(=C43)C2=O
How it was run: as §1

[8] = compound: C1CCN(C1)C(=O)NC2=CC=CC(=C2)NC3=NC=C(C(=N3)NCCC4=CN=CN4)Br
How it was run: as §1

[9] = compound: C1CN(CCC1(CC2=CC=C(C=C2)Cl)N)C3=NC=NC4=C3C=CN4
How it was run: as §1

[10] = compound: C1COCCN1CCN2C3=CC=CC=C3N=C2NC(=O)C4=CC(=CC=C4)[N+](=O)[O-] [IRAK-1-4 Inhibitor I]
How it was run: as §1

[11] = compound: C=CC(=O)N1CCC[C@@H](n2nc(-c3ccc(Oc4ccccc4)cc3)c3c(N)ncnc32)C1 [ibrutinib]
How it was run: as §1

[12] = compound: CC(=O)c1cnc2ccc(-c3cc(Cl)c(O)c(Cl)c3)nc2c1N[C@H]1CC[C@H](CN(C)C)CC1
How it was run: as §1

[13] = compound: CC(C)(C)Cn1c(N)nc2ccc(-c3[nH]c(C(C)(C)C)nc3-c3ccc(F)cc3)nc21 [ralimetinib]
How it was run: as §1

[14] = compound: CC(C)(O)CC(=O)NCCn1ccc2ncnc(Nc3ccc(Oc4cccc(C(F)(F)F)c4)c(Cl)c3)c21
How it was run: as §1

[15] = compound: CC(C)C1=C2N=C(C=C(N2N=C1)NCC3=CC=CC=C3)NCCCCCCN
How it was run: as §1

[16] = compound: CC1=C(C(CC(=O)N1)C2=CC=C(C=C2)C(F)(F)F)C(=O)NC3=C(C=C4C(=C3)C=NN4)F
How it was run: as §1

[17] = compound: CC1=C(C2=C(C=C1)C(=O)C3=CC=CC=C3N2CCCN)C
How it was run: as §1

[18] = compound: CC1=C(C=C(C=C1)NC(=O)C2=CC(=CC=C2)C(C)(C)C#N)NC3=CC4=C(C=C3)N=CN(C4=O)C
How it was run: as §1

[19] = compound: CC1=C(C=C(C=C1)NC(=O)C2=CC(=CC=C2)N(C)C)NC(=O)C3=CC=C(C=C3)O
How it was run: as §1

[20] = compound: CC1=CC=C(C=C1)SC2=C3C=C(SC3=CN=C2)C(=O)N
How it was run: as §1

| Target | log2 fold change [1] | log2 fold change [2] | log2 fold change [3] | log2 fold change [4] | log2 fold change [5] | log2 fold change [6] | log2 fold change [7] | log2 fold change [8] | log2 fold change [9] | log2 fold change [10] | log2 fold change [11] | log2 fold change [12] | log2 fold change [13] | log2 fold change [14] | log2 fold change [15] | log2 fold change [16] | log2 fold change [17] | log2 fold change [18] | log2 fold change [19] | log2 fold change [20] |
| --- | --- | --- | --- | --- | --- | --- | --- | --- | --- | --- | --- | --- | --- | --- | --- | --- | --- | --- | --- | --- |
| GSTZ1 (UniProt G3V4T6) | inactive: 0.018 | inactive: -0.034 | inactive: 0.032 | inactive: -0.003 | inactive: 0.02 | inactive: -0.043 | inactive: 0.026 | inactive: 0.017 | inactive: 0.064 | inactive: 0.016 | inactive: 0 | inactive: 0 | inactive: 0.014 | inactive: -0.019 | inactive: 0.004 | inactive: 0.01 | inactive: 0.036 | inactive: -0.02 | inactive: -0.003 | inactive: -0.016 |
| HBZ (UniProt P02008) | inactive: -0.008 | inactive: -0.004 | inactive: -0.041 | inactive: 0.004 | inactive: -0.005 | inactive: -0.025 | inactive: 0.017 | inactive: -0.006 | inactive: 0.028 | inactive: -0.007 | inactive: -0.096 | inactive: -0.034 | inactive: 0.03 | inactive: -0.024 | inactive: 0 | inactive: -0.076 | inactive: -0.005 | inactive: 0.069 | inactive: -0.027 | inactive: 0.041 |
| HDHD5 (UniProt Q9BXW7) | inactive: -0.015 | inactive: -0.038 | inactive: 0.012 | inactive: 0.07 | inactive: 0.022 | inactive: -0.006 | inactive: -0.027 | inactive: -0.023 | inactive: -0.05 | inactive: 0.051 | inactive: -0.027 | inactive: 0.018 | inactive: 0 | inactive: 0.073 | inactive: -0.042 | inactive: 0.011 | inactive: -0.023 | inactive: -0.007 | inactive: 0.024 | inactive: -0.001 |
| GYS1 (UniProt P13807) | inactive: -0.033 | inactive: 0.045 | inactive: -0.006 | inactive: -0.028 | inactive: -0.012 | inactive: -0.034 | inactive: 0.145 | inactive: -0.049 | inactive: 0.004 | inactive: 0.018 | inactive: 0.062 | inactive: -0.04 | inactive: 0.041 | inactive: 0.012 | inactive: -0.028 | inactive: 0.002 | inactive: 0.021 | inactive: 0 | inactive: 0.011 | inactive: 0.005 |
| GRPEL2 (UniProt Q8TAA5) | inactive: 0.076 | inactive: -0.112 | inactive: 0.009 | inactive: -0.02 | inactive: 0.006 | inactive: 0.012 | inactive: -0.062 | inactive: 0.025 | inactive: -0.019 | inactive: 0.029 | inactive: 0.001 | inactive: 0.039 | inactive: 0.033 | inactive: -0.004 | inactive: -0.055 | inactive: 0.06 | inactive: -0.007 | inactive: -0.016 | inactive: 0.023 | inactive: 0.072 |
| GSTCD (UniProt Q8NEC7) | inactive: 0.041 | inactive: -0.017 | inactive: -0.037 | inactive: 0.033 | inactive: -0.027 | inactive: 0.012 | inactive: -0.021 | inactive: -0.028 | inactive: 0.005 | inactive: -0.055 | inactive: 0.057 | inactive: -0.01 | inactive: 0.033 | inactive: -0.023 | inactive: -0.038 | inactive: 0.044 | inactive: -0.04 | inactive: 0.051 | inactive: -0.003 | inactive: 0.011 |
| HEATR5B (UniProt Q9P2D3) | inactive: 0.017 | inactive: 0.004 | inactive: -0.035 | inactive: -0.016 | inactive: -0.046 | inactive: 0.018 | inactive: -0.049 | inactive: -0.023 | inactive: 0.049 | inactive: 0.057 | inactive: 0.082 | inactive: -0.003 | inactive: -0.076 | inactive: -0.135 | inactive: -0.031 | inactive: -0.004 | inactive: 0.018 | inactive: 0.033 | inactive: -0.039 | inactive: 0.002 |
| H1-3 (UniProt P16402) | inactive: -0.021 | inactive: -0.035 | inactive: -0.059 | inactive: -0.004 | inactive: -0.002 | inactive: 0.037 | inactive: 0.071 | inactive: 0.035 | inactive: -0.001 | inactive: 0.024 | inactive: -0.029 | inactive: -0.021 | inactive: -0.046 | inactive: 0.013 | inactive: 0.033 | inactive: 0.001 | inactive: 0.17 | inactive: -0.011 | inactive: -0.036 | inactive: 0.015 |
| HADHB (UniProt P55084) | inactive: -0.108 | inactive: -0.039 | active: 0.367 | inactive: -0.036 | inactive: -0.128 | inactive: -0.029 | inactive: 0.011 | inactive: -0.066 | inactive: 0.062 | inactive: 0.025 | inactive: 0.086 | inactive: -0.05 | inactive: 0.002 | inactive: 0.104 | inactive: -0.024 | inactive: -0.046 | inactive: 0.028 | inactive: 0.062 | inactive: -0.03 | inactive: 0.077 |
| HDAC4 (UniProt P56524) | inactive: -0.019 | inactive: -0.002 | inactive: 0.093 | inactive: -0.048 | inactive: -0.087 | inactive: -0.01 | inactive: -0.074 | inactive: 0.018 | inactive: 0.028 | inactive: 0.004 | inactive: 0.005 | inactive: 0.02 | inactive: 0.036 | inactive: -0.013 | inactive: 0.033 | inactive: 0.054 | inactive: -0.014 | inactive: -0.007 | inactive: -0.056 | inactive: -0.073 |
| HEATR1 (UniProt Q9H583) | inactive: 0.027 | inactive: 0.01 | inactive: -0.067 | inactive: 0.096 | inactive: 0.05 | inactive: -0.013 | inactive: -0.035 | inactive: 0.007 | inactive: 0.05 | inactive: -0.012 | inactive: -0.021 | inactive: 0.009 | inactive: 0.026 | inactive: 0.021 | inactive: -0.034 | inactive: 0.011 | inactive: -0.032 | inactive: 0.009 | inactive: 0.037 | inactive: -0.006 |
| HBQ1 (UniProt P09105) | inactive: -0.027 | inactive: 0.064 | inactive: -0.038 | inactive: 0.022 | inactive: -0.048 | inactive: -0.062 | inactive: -0.018 | inactive: -0.007 | inactive: 0.044 | inactive: -0.026 | inactive: 0.046 | inactive: -0.013 | inactive: 0.006 | inactive: -0.036 | inactive: -0.052 | inactive: -0.073 | inactive: -0.009 | inactive: 0.033 | inactive: 0.01 | inactive: 0.029 |
| HBS1L (UniProt Q9Y450) | inactive: 0.037 | inactive: -0.027 | inactive: -0.041 | inactive: 0.029 | inactive: -0.016 | inactive: 0.02 | inactive: 0.004 | inactive: -0.022 | inactive: -0.01 | inactive: -0.026 | inactive: 0.01 | inactive: 0 | inactive: 0.008 | inactive: 0.004 | inactive: 0.062 | inactive: -0.012 | inactive: -0.002 | inactive: 0.01 | inactive: 0.014 | inactive: 0.019 |
| HACD3 (UniProt Q9P035) | inactive: 0.013 | inactive: 0.022 | inactive: -0.101 | inactive: 0.037 | inactive: -0.029 | inactive: 0.004 | inactive: -0.049 | inactive: -0.04 | inactive: 0.021 | inactive: 0.027 | inactive: 0.013 | inactive: -0.02 | inactive: 0 | inactive: -0.085 | inactive: 0 | inactive: -0.019 | inactive: 0 | inactive: 0.027 | inactive: -0.009 | inactive: 0.019 |
| HDDC2 (UniProt Q7Z4H3) | inactive: 0.032 | inactive: 0.061 | inactive: -0.023 | inactive: 0.027 | inactive: -0.025 | inactive: 0.01 | inactive: 0.048 | inactive: 0.039 | inactive: 0.055 | inactive: 0.017 | inactive: 0.068 | inactive: 0.016 | inactive: 0.012 | inactive: 0.019 | inactive: -0.032 | inactive: 0.017 | inactive: 0.017 | inactive: -0.008 | inactive: -0.025 | inactive: 0.026 |
| HDHD3 (UniProt Q9BSH5) | inactive: 0.008 | inactive: -0.005 | inactive: 0.006 | inactive: -0.003 | inactive: 0.157 | inactive: 0.011 | inactive: 0.063 | inactive: -0.005 | inactive: -0.013 | inactive: 0.014 | inactive: 0.02 | inactive: 0.01 | inactive: 0.002 | inactive: -0.039 | inactive: -0.05 | inactive: -0.073 | inactive: 0.027 | inactive: 0.08 | inactive: -0.042 | inactive: 0.021 |

Three consecutive entries already listed, quoted:

| Target | log2 fold change [1] | log2 fold change [2] | log2 fold change [3] | log2 fold change [4] | log2 fold change [5] | log2 fold change [6] | log2 fold change [7] | log2 fold change [8] | log2 fold change [9] | log2 fold change [10] | log2 fold change [11] | log2 fold change [12] | log2 fold change [13] | log2 fold change [14] | log2 fold change [15] | log2 fold change [16] | log2 fold change [17] | log2 fold change [18] | log2 fold change [19] | log2 fold change [20] |
| --- | --- | --- | --- | --- | --- | --- | --- | --- | --- | --- | --- | --- | --- | --- | --- | --- | --- | --- | --- | --- |
| GSTCD (UniProt Q8NEC7) | inactive: 0.041 | inactive: -0.017 | inactive: -0.037 | inactive: 0.033 | inactive: -0.027 | inactive: 0.012 | inactive: -0.021 | inactive: -0.028 | inactive: 0.005 | inactive: -0.055 | inactive: 0.057 | inactive: -0.01 | inactive: 0.033 | inactive: -0.023 | inactive: -0.038 | inactive: 0.044 | inactive: -0.04 | inactive: 0.051 | inactive: -0.003 | inactive: 0.011 |
| HEATR5B (UniProt Q9P2D3) | inactive: 0.017 | inactive: 0.004 | inactive: -0.035 | inactive: -0.016 | inactive: -0.046 | inactive: 0.018 | inactive: -0.049 | inactive: -0.023 | inactive: 0.049 | inactive: 0.057 | inactive: 0.082 | inactive: -0.003 | inactive: -0.076 | inactive: -0.135 | inactive: -0.031 | inactive: -0.004 | inactive: 0.018 | inactive: 0.033 | inactive: -0.039 | inactive: 0.002 |
| H1-3 (UniProt P16402) | inactive: -0.021 | inactive: -0.035 | inactive: -0.059 | inactive: -0.004 | inactive: -0.002 | inactive: 0.037 | inactive: 0.071 | inactive: 0.035 | inactive: -0.001 | inactive: 0.024 | inactive: -0.029 | inactive: -0.021 | inactive: -0.046 | inactive: 0.013 | inactive: 0.033 | inactive: 0.001 | inactive: 0.17 | inactive: -0.011 | inactive: -0.036 | inactive: 0.015 |
